PubChem BioAssay AID1224828 | NIAID – 2016

Assay: 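Knock-downs that increase or decrease LPS-induced p65 nuclear translocation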 (primary screen)
System: mouse RAW264.7 G9 macrophage reporter cells (GFP-p65, Tnf promoter-mCherry)
Reagents: siRNA pool against mouse genes, 100 nM
Time to read-out: 2 days siRNA transfection, then 40 min LPS before fixation
Challenge: LPS (Salmonella minnesota R595) at 10 ng/ml
Measurement: 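Imaged p65 nuclear translocation ratio, normalised to the plate median, converted to robust z-scores and averaged across two replicates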
Scale: p65 translocation robust z-score: higher = more nuclear NF-kappaB p65 after LPS than the plate median; nuclear/cytoplasmic p65 ratio: higher = more nuclear NF-kappaB p65
Call rule: 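Active if robust z is above 3.3 (negative regulators) or below -1.56, the Tlr4 control median (positive regulators); activity score 50 or more; control wells not called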
Calls: active = hit (p65 shift raised or lowered); inactive = no clear change
The deposit covers about 17,000 reagents; shown is a part drawn at random. Of all reagents, 762 (4.5%) were called active. 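Active calls include both raised and lowered p65 entry, mostly lowered; wells with fewer than 50 cells lack a z-score.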 The raw values are shown without normalisation. Reagents against one gene are numbered here. A reagent listed more than once was tested more than once; the source does not tell the runs apart.

Gene	pool no.	p65 translocation robust z-score	nuclear/cytoplasmic p65 ratio, rep 1	nuclear/cytoplasmic p65 ratio, rep 2	low cell count flag	call
Or3a10	1	-1.14	1.37	1.4	enough cells to score	inactive
Ntf3	1	-0.14	1.44	1.38	enough cells to score	inactive
Astl	1	2.49	1.94	2.22	enough cells to score	inactive
Gprc5b	1	0.45	1.51	1.71	enough cells to score	inactive
Ly96	1		1.21	1.03	fewer than 50 cells per well; well left out of scoring	inactive
Cdx1	1	-1.88	1.18	1.16	enough cells to score	active
Bclaf1	1	-0.17	1.54	1.63	enough cells to score	inactive
P2ry4	1	-1.67	1.24	1.38	enough cells to score	active
Or8k3b	1		1.77	1.47	fewer than 50 cells per well; well left out of scoring	inactive
Otc	1	-0.45	1.38	1.36	enough cells to score	inactive
Grn	1	0.33	1.72	1.57	enough cells to score	inactive
Ndufb4	1	0.19	1.88	1.56	enough cells to score	inactive
Slc28a3	1	-0.54	1.35	1.2	enough cells to score	inactive
Nudt21	1	0.27	1.66	1.78	enough cells to score	inactive
Tcf15	1	-0.69	1.43	1.41	enough cells to score	inactive
Klra2	1	-1.55	1.37	1.19	enough cells to score	inactive
Mrpl3	1	0.09	1.82	1.59	enough cells to score	inactive
Rcn3	1	1.58	1.59	1.43	enough cells to score	inactive
Cdh10	1	0.93	1.77	1.73	enough cells to score	inactive
Fadd	1	-0.45	1.41	1.3	enough cells to score	inactive
Snrpa1	1		1.21	1.11	fewer than 50 cells per well; well left out of scoring	inactive
Adam32	1	-0.57	1.51	1.56	enough cells to score	inactive
Srd5a3	1	-0.13	1.28	1.22	enough cells to score	inactive
Slc22a13b	1	-1.11	1.26	1.41	enough cells to score	inactive
Dis3l2	1	-0.47	1.21	1.4	enough cells to score	inactive
Rps18	1	0.66	1.51	1.42	enough cells to score	inactive
Or4d2b	1		1.31	1.23	fewer than 50 cells per well; well left out of scoring	inactive
Gcsh	1	-0.76	1.52	1.48	enough cells to score	inactive
Ptgdr2	1	1.36	1.61	1.87	enough cells to score	inactive
Fcrl1	1	-0.98	1.45	1.48	enough cells to score	inactive
Timm44	1	-0.73	1.21	1.17	enough cells to score	inactive
Cwc22	1	-0.12	1.51	1.88	enough cells to score	inactive
Clec18a	1	0.96	1.99	1.69	enough cells to score	inactive
Tas2r131	1	0.62	1.52	1.69	enough cells to score	inactive
Bspry	1		1.39	1.56	fewer than 50 cells per well; well left out of scoring	inactive
Traf6	1	-1.44	1.33	1.29	enough cells to score	inactive
A630005I04Rik (retired record)	1		1.23	1.36	fewer than 50 cells per well; well left out of scoring	inactive
Xxylt1	1	1.71	1.89	1.92	enough cells to score	inactive
Stimate	1		1.1	1.27	fewer than 50 cells per well; well left out of scoring	inactive
Gyg1	1	1.46	1.82	1.8	enough cells to score	inactive
Tacstd2	1	-0.76	1.41	1.42	enough cells to score	inactive
Cyp4f39	1		1.24	1.3	fewer than 50 cells per well; well left out of scoring	inactive
Pigo	1	-1.36	1.29	1.06	enough cells to score	inactive
Sclt1	1	1.72	1.63	1.55	enough cells to score	inactive
Elmod1	1	0.11	1.32	1.25	enough cells to score	inactive
Slc12a9	1	-1.22	1.22	1.14	enough cells to score	inactive
Slc12a9	1		1.2	0.9	fewer than 50 cells per well; well left out of scoring	inactive
Or14j3	1	-1.86	1.33	1.26	enough cells to score	active
Rnf2	1		1.26	1.21	fewer than 50 cells per well; well left out of scoring	inactive
Arx	1	1.87	1.88	1.92	enough cells to score	inactive
Ei24	1	-0.19	1.45	1.34	enough cells to score	inactive
Svs3a	1	1.44	1.66	1.35	enough cells to score	inactive
Syap1	1	-1.22	1.2	1.07	enough cells to score	inactive
H2-M10.3	1	-2.67	1.2	1.18	enough cells to score	active
Msx3	1	0.62	1.92	1.65	enough cells to score	inactive
Ifitm3	1	-0.83	1.57	1.2	enough cells to score	inactive
Nsun5	1	-1.05	1.47	1.44	enough cells to score	inactive
Lsg1	1	1.5	1.74	1.81	enough cells to score	inactive
Nudt12	1	2.38	2.1	1.86	enough cells to score	inactive
BC043934	1	0.75	1.46	1.7	enough cells to score	inactive
Edn3	1	0.44	1.58	1.41	enough cells to score	inactive
Eif2d	1	-1.01	1.63	1.33	enough cells to score	inactive
Pde4dip	1	-0.31	1.32	1.19	enough cells to score	inactive
Pde4dip	2	-0.2	1.35	1.57	enough cells to score	inactive
Pde4dip	3	-0.19	1.58	1.71	enough cells to score	inactive
Fau	1	0.26	1.55	1.35	enough cells to score	inactive
Defb7	1	-0.09	1.6	1.49	enough cells to score	inactive
Plekha4	1		1.42	1.3	fewer than 50 cells per well; well left out of scoring	inactive
Or7g32	1		1.44	1.31	fewer than 50 cells per well; well left out of scoring	inactive
Unc5c	1	0.07	1.59	1.45	enough cells to score	inactive
Capn6	1	0.06	1.62	1.77	enough cells to score	inactive
Pvr	1	0.01	1.49	1.34	enough cells to score	inactive
Pvr	2	-1.04	1.4	1.34	enough cells to score	inactive
Cers1	1	-1.96	1.2	1.23	enough cells to score	active
Gnmt	1	0.11	1.43	1.41	enough cells to score	inactive

Laid out differently: 7 of the entries above
Gene | pool no. | p65 translocation robust z-score | nuclear/cytoplasmic p65 ratio, rep 1 | nuclear/cytoplasmic p65 ratio, rep 2 | low cell count flag | call
Astl | 1 | 2.49 | 1.94 | 2.22 | enough cells to score | inactive
Gprc5b | 1 | 0.45 | 1.51 | 1.71 | enough cells to score | inactive
Ly96 | 1 | – | 1.21 | 1.03 | fewer than 50 cells per well; well left out of scoring | inactive
Cdx1 | 1 | -1.88 | 1.18 | 1.16 | enough cells to score | active
Bclaf1 | 1 | -0.17 | 1.54 | 1.63 | enough cells to score | inactive
P2ry4 | 1 | -1.67 | 1.24 | 1.38 | enough cells to score | active
Or8k3b | 1 | – | 1.77 | 1.47 | fewer than 50 cells per well; well left out of scoring | inactive
